In PMC10253451:
Results are given in words; binding and its absence hold for the method and conditions named. Binding seen in cells or lysates may run through a third protein. Some entries that bind do so weakly or less than the wild type. Sequences can lack the tags named with a protein. Blank lines part the entries; values can stand above or below the molecule they belong to.

Amino acid sequences for entries named in this document (tags omitted).
UniProt P40763: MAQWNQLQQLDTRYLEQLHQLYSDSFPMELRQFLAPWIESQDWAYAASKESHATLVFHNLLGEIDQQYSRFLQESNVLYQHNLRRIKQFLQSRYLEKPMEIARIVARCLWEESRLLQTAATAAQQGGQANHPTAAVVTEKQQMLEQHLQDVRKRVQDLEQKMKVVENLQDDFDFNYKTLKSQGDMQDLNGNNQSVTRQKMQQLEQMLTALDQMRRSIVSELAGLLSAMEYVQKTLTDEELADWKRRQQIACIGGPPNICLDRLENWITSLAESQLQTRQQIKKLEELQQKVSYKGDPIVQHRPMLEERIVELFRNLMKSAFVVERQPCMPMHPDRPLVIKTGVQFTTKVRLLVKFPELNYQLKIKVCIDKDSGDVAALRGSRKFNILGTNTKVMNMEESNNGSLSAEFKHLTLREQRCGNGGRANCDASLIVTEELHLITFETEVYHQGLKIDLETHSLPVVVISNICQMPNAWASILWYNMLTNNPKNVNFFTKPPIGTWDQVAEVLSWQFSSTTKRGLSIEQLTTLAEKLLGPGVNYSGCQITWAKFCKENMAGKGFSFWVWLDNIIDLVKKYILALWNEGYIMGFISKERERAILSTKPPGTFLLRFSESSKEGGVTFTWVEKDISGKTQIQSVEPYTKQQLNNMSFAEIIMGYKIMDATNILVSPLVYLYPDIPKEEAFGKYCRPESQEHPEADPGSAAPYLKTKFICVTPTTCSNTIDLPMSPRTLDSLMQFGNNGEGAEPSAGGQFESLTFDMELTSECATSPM
UniProt P53350: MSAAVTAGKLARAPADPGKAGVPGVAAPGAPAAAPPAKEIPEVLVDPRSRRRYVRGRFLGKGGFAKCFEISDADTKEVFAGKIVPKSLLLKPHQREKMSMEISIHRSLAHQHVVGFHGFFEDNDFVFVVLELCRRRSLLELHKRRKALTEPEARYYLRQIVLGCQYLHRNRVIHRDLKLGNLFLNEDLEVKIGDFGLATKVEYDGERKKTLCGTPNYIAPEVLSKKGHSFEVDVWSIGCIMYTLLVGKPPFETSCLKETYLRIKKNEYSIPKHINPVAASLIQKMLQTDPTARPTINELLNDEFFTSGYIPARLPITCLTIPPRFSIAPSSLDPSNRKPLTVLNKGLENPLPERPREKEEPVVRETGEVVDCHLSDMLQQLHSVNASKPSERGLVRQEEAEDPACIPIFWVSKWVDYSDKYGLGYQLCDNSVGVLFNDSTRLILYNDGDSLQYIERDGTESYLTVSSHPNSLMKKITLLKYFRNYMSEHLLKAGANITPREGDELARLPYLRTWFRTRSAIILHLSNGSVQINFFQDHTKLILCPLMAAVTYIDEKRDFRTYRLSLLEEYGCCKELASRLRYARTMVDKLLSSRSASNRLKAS
UniProt P06748: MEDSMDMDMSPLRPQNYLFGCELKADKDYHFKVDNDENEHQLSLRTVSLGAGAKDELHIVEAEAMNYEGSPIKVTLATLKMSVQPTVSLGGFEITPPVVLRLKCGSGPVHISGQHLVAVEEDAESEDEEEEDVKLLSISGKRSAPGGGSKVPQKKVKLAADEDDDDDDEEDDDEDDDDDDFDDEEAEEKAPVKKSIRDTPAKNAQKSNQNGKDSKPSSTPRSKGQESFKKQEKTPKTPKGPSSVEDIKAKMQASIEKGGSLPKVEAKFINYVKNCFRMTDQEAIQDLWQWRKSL

Biological target: T1, 3× FLAG–TROAP fusion (trophinin-associated protein) (human) (UniProt Q12815)
T1 sequence: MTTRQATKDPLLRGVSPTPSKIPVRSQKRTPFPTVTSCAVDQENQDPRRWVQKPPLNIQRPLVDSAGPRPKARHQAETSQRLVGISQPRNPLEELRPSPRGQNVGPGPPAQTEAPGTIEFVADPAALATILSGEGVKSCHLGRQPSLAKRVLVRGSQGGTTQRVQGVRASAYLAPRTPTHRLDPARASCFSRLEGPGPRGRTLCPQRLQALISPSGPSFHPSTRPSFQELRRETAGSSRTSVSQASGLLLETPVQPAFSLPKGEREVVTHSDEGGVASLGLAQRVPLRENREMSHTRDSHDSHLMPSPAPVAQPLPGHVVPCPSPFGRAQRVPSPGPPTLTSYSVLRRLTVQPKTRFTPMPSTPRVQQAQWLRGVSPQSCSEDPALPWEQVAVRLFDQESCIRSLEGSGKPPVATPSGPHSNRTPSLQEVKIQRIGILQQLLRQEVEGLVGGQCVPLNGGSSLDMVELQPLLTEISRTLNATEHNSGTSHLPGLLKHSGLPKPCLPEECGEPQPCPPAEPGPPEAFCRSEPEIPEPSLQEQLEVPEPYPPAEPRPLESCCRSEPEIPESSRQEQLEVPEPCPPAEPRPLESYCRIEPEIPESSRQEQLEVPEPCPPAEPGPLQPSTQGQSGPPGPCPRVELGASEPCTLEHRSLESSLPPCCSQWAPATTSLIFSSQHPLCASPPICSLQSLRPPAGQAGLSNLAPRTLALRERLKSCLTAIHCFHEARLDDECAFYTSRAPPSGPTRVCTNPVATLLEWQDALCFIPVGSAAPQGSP
Assay: co-IP; 786-O cells infected with 3× FLAG–TROAP lentivirus (OE) or control; FLAG beads (Sigma); Western blot of the precipitate

binding: binds
Molecule: activated p-STAT3 protein (phosphorylated signal transducer and activator of transcription 3) (from UniProt P40763 1-770)

binding: no binding
Molecule: p-PLK1 (from UniProt P53350 1-603)

binding: no binding
Molecule: p-NPM1 (from UniProt P06748 1-294)

binding: no binding
B1: p-RB1 (protein, UniProt P06400 1-928)
chain: MPPKTPRKTAATAAAAAAEPPAPPPPPPPEEDPEQDSGPEDLPLVRLEFEETEEPDFTALCQKLKIPDHVRERAWLTWEKVSSVDGVLGGYIQKKKELWGICIFIAAVDLDEMSFTFTELQKNIEISVHKFFNLLKEIDTSTKVDNAMSRLLKKYDVLFALFSKLERTCELIYLTQPSSSISTEINSALVLKVSWITFLLAKGEVLQMEDDLVISFQLMLCVLDYFIKLSPPMLLKEPYKTAVIPINGSPRTPRRGQNRSARIAKQLENDTRIIEVLCKEHECNIDEVKNVYFKNFIPFMNSLGLVTSNGLPEVENLSKRYEEIYLKNKDLDARLFLDHDKTLQTDSIDSFETQRTPRKSNLDEEVNVIPPHTPVRTVMNTIQQLMMILNSASDQPSENLISYFNNCTVNPKESILKRVKDIGYIFKEKFAKAVGQGCVEIGSQRYKLGVRLYYRVMESMLKSEEERLSIQNFSKLLNDNIFHMSLLACALEVVMATYSRSTSQNLDSGTDLSFPWILNVLNLKAFDFYKVIESFIKAEGNLTREMIKHLERCEHRIMESLAWLSDSPLFDLIKQSKDREGPTDHLESACPLNLPLQNNHTAADMYLSPVRSPKKKGSTTRVNSTANAETQATSAFQTQKPLKSTSLSLFYKKVYRLAYLRLNTLCERLLSEHPELEHIIWTLFQHTLQNEYELMRDRHLDQIMMCSMYGICKVKNIDLKFKIIVTAYKDLPHAVQETFKRVLIKEEEYDSIIVFYNSVFMQRLKTNILQYASTRPPTLSPIPHIPRSPYKFPSSPLRIPGGNIYISPLKSPYKISEGLPTPTKMTPRSRILVSIGESFGTSEKFQKINQMVCNSDRVLKRSAEGSNPPKPLKKLRFDIEGSDEADGSKHLPGESKFQQKLAEMTSTRTRMQKQKMNDSMDTSNKEEK
modifications: phosphorylated (p-RB1); site not given
